Measured values published in the supplement of paper PMC9135407.
“And” between values parts separate entries of the source, which are not always exact repeats. Equal entries are not always repeated. Structures can show the parent of a compound that is named as a salt. ± gives the standard deviation of the averaged measurements. This is one part of the list. Plates or batches differ in their baseline, so values are only roughly comparable.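 Culture-activated primary human stellate myofibroblasts, where regained lipid droplets signal inactivation. Value: share of Hoechst-counted cells above a per-plate Bodipy cutoff, in duplicate wells, with DMSO negative and nortriptyline positive controls on each plate. Hits: a control-normalized score above the plate's top-tenth-percentile nortriptyline wells, or one of a plate's three best wells. Final well concentrations are not given.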

System: primary human hepatic stellate cells (donor 1)
Test: percent Bodipy-positive cells; higher = more lipid droplet accumulation
Conditions: 48 h
[1] = library stock concentration: 1 mM
[2] = library stock concentration: 10 mM
[3] = library stock concentration: 3.33 mM
[4] = library stock concentration: 80 uM
[5] = library stock concentration: 400 uM

Structure (SMILES): Cl.Fc1ccc([C@@H]2CCNC[C@H]2COc2ccc3c(c2)OCO3)cc1 [Paroxetine Hydrochloride]
- percent Bodipy-positive cells: 79.1 ± 3.3%

Structure (SMILES): O=C(O)c1ccc2c(c1)CCCC2 [5,6,7,8-tetrahydro-2-Naphthoic Acid]
- percent Bodipy-positive cells [1]: 9.06 ± 3.2%

Structure (SMILES): CN(CC[C@@H](Oc1ccc(-c2ccccc2)cc1)c1ccc(F)cc1)CC(=O)O [ALX 5407 hydrochloride]
- percent Bodipy-positive cells [2]: 8.88 ± 4.3%

Structure (SMILES): CN(C)CC(c1ccc(O)cc1)C1(O)CCCCC1 (centres undefined) [Desvenlafaxine]
- percent Bodipy-positive cells [3]: 12.2 ± 1.5%
- percent Bodipy-positive cells [2]: 33.4 ± 11%

Structure (SMILES): CN(C)CC(c1ccc(O)cc1)C1(O)CCCCC1 (centres undefined)
- percent Bodipy-positive cells [2]: 35.6 ± 10%

Structure (SMILES): CN(C)CC(c1ccc(O)cc1)C1(O)CCCCC1 (centres undefined) [Desvenlafaxine Succinate]
- percent Bodipy-positive cells [3]: 7.98 ± 2.7%
- percent Bodipy-positive cells [2]: 40.3 ± 16%

Structure (SMILES): NC(=O)[C@@H]1CCCN1C(=O)[C@H](Cc1c[nH]cn1)NC(=O)[C@@H]1CCC(=O)N1
- percent Bodipy-positive cells [2]: 30.4 ± 15%

Structure (SMILES): O=C(NOCC(O)CO)c1cc(Br)c(F)c(F)c1Nc1ccc(I)cc1F (centres undefined)
- percent Bodipy-positive cells [3]: 5.54 ± 1.9%
- percent Bodipy-positive cells [2]: 15.6 ± 5.7%

Structure (SMILES): N#CCCc1ccc2c(c1)-c1[nH]c3ccc([N+](=O)[O-])cc3c1CC(=O)N2 [Alsterpaullone, 2-Cyanoethyl]
- percent Bodipy-positive cells [3]: 40.9 ± 1.8%

Structure (SMILES): O=C(Nc1ccccc1Br)N[C@@H]1CCN(c2ccc(C(F)(F)F)cn2)C1
- percent Bodipy-positive cells [3]: 10.6 ± 2%
- percent Bodipy-positive cells [2]: 22.5 ± 2.2%

Structure (SMILES): COc1ccc(S(=O)(=O)N(CCO)c2ccccc2CN(C)C/C=C/c2ccc(Cl)cc2)cc1 [KN-93 Phosphate]
- percent Bodipy-positive cells [3]: 63.4 ± 6.2%

Structure (SMILES): CCCCCCCCCCCCCCCC(=O)NC[C@@H](C)O [R-Palmitoyl-(2-methyl) Ethanolamide]
- percent Bodipy-positive cells [1]: 18.6 ± 14%

Structure (SMILES): CC(=O)Oc1cccc(C)c1 [meta-CRESYL ACETATE]
- percent Bodipy-positive cells [2]: 33 ± 10%

Structure (SMILES): COc1ccc2c(c1)c(CC(=O)Nc1cccnc1)c(C)n2C(=O)c1ccc(Cl)cc1 [N-(3-pyridyl)-Indomethacin amide]
- percent Bodipy-positive cells [1]: 22.5 ± 0.46%

Structure (SMILES): CC(C)Oc1ccc(C(=O)N[C@H](CNC(=O)CN(C)C)Cc2ccc(-c3cn4cccc([C@H](C)O)c4n3)cc2)cc1Cl
- percent Bodipy-positive cells [2]: 90.5 ± 3%

Structure (SMILES): NS(=O)(=O)c1ccc(-n2nc(C(F)(F)F)cc2-c2ccc(Cl)cc2)cc1
- percent Bodipy-positive cells [2]: 54.8 ± 12%

Structure (SMILES): COc1cccc(C(=O)NCCN2CCN(c3ccc(Cl)cc3)CC2)c1
- percent Bodipy-positive cells [2]: 64 ± 6.4%

Structure (SMILES): CCCCC[C@@H](O)/C=C/[C@H]1[C@H](O)CC(=O)[C@@H]1C/C=C\CCCC(=O)O [15(R)-Prostaglandin E2]
- percent Bodipy-positive cells [1]: 17.6 ± 5.6%

Structure (SMILES): c1ccc(CNc2ncnc3nc[nH]c23)cc1 [Aminopurine, 6-benzyl]
- percent Bodipy-positive cells: 26.9 ± 4.5%

Structure (SMILES): CCN[C@@H]1C[C@H](N)[C@@H](O[C@H]2OC(CN)=CC[C@H]2N)[C@H](O)[C@H]1O[C@H]1OC[C@](C)(O)[C@H](NC)[C@H]1O [Netilmicin sulfate]
- percent Bodipy-positive cells (library stock concentration: 3 mM): 8.85 ± 3.4%

Structure (SMILES): O=C1NC(=O)C(=Cc2ccc(-c3ccc(F)cc3)o2)S1 (stereo in doubt)
- percent Bodipy-positive cells [3]: 4.67 ± 0.65%
- percent Bodipy-positive cells [2]: 14.3 ± 0.53%

Structure (SMILES): O=C1NC(=O)C(c2ccccc2)(c2ccccc2)N1 [5,5-Diphenylhydantoin]
- percent Bodipy-positive cells [2]: 39.7 ± 16%

Structure (SMILES): O=C1NC(=O)C(c2ccccc2)(c2ccccc2)N1 [Phenytoin]
- percent Bodipy-positive cells [3]: 26.7 ± 1.9%
- percent Bodipy-positive cells (library stock concentration: 7.9 mM): 5.59 ± 1.7%
- percent Bodipy-positive cells [2]: 10.3 ± 2.3%

Structure (SMILES): O=C1NC(=O)C(c2ccccc2)(c2ccccc2)N1 [Dilantin]
- percent Bodipy-positive cells [2]: 26.7 ± 3%

Structure (SMILES): CC(C)(O)c1ccccc1CC[C@@H](SCC1(CC(=O)O)CC1)c1cccc(/C=C/c2ccc3ccc(Cl)cc3n2)c1 [Montelukast (sodium salt)]
- percent Bodipy-positive cells [1]: 17.5 ± 5.8%

Structure (SMILES): CC(C)(O)c1ccccc1CC[C@@H](SCC1(CC(=O)O)CC1)c1cccc(/C=C/c2ccc3ccc(Cl)cc3n2)c1 [Montelukast Sodium]
- percent Bodipy-positive cells [3]: 10.5 ± 2.4%
- percent Bodipy-positive cells [2]: 31.4 ± 7.3%

Structure (SMILES): CC(C)(O)c1ccccc1CC[C@@H](SCC1(CC(=O)O)CC1)c1cccc(/C=C/c2ccc3ccc(Cl)cc3n2)c1
- percent Bodipy-positive cells (library stock concentration: 9.6 mM): 11.5 ± 0.83%
- percent Bodipy-positive cells [2]: 14.5 ± 0.3%

Structure (SMILES): CN(C)C/C=C/C(=O)Nc1cc2c(Nc3ccc(F)c(Cl)c3)ncnc2cc1O[C@H]1CCOC1 [Afatinib (BIBW2992)]
- percent Bodipy-positive cells [2]: 100%

Structure (SMILES): CN(C)C/C=C/C(=O)Nc1cc2c(Nc3ccc(F)c(Cl)c3)ncnc2cc1O[C@H]1CCOC1
- percent Bodipy-positive cells [4]: 65 ± 19%
- percent Bodipy-positive cells [5]: 61.2 ± 1.2%
- percent Bodipy-positive cells [2]: 99.41 ± 0.84%

Structure (SMILES): CN(C)C/C=C/C(=O)Nc1cc2c(Nc3ccc(F)c(Cl)c3)ncnc2cc1O[C@H]1CCOC1 [Afatinib  (TOVOK,  BIBW-2992) (10 mM)]
- percent Bodipy-positive cells [2]: 100%

Structure (SMILES): CN(C)C/C=C/C(=O)Nc1cc2c(Nc3ccc(F)c(Cl)c3)ncnc2cc1O[C@H]1CCOC1 [Afatinib  (TOVOK,  BIBW-2992) (0.4 mM)]
- percent Bodipy-positive cells [5]: 71.4 ± 14%

Structure (SMILES): CN1Cc2c(N)cccc2C(c2ccccc2)C1 (centres undefined) [Nomifensine maleate]
- percent Bodipy-positive cells: 66 ± 11%

Structure (SMILES): O=C1C(c2ccccc2)N(c2ccc(Br)cc2)C(=O)N1c1ccc(Br)cc1 (centres undefined)
- percent Bodipy-positive cells [1]: 9.97 ± 1.5%

Structure (SMILES): O=C(Nc1ccccc1)Nc1ccc(-c2ccc(C(=O)[C@@H]3CCC[C@H]3C(=O)O)cc2)cc1
- percent Bodipy-positive cells [3]: 9.93 ± 4.7%
- percent Bodipy-positive cells [2]: 13.2 ± 5%

Structure (SMILES): FC(F)(F)COCC(F)(F)F [Flurothyl]
- percent Bodipy-positive cells (library stock concentration: 11 mM): 4.22 ± 3.4%

Structure (SMILES): OC[C@@H](O)[C@@H](O)[C@@H](O)CO [Ribitol]
- percent Bodipy-positive cells [3]: 13.6 ± 0.87%
- percent Bodipy-positive cells [2]: 16.8 ± 1.3%

Structure (SMILES): CCCCCCCCCCCCC/C=C/[C@@H](O)[C@@H](N)CO [Sphingosine]
- percent Bodipy-positive cells [1]: 11.7 ± 12%

Structure (SMILES): COc1ccccc1OCC(O)COC(N)=O (centres undefined) [Methocarbamol]
- percent Bodipy-positive cells: 23.8 ± 3.7%
- percent Bodipy-positive cells [3]: 15.7 ± 2.2%
- percent Bodipy-positive cells (library stock concentration: 8.3 mM): 4.35 ± 0.14%
- percent Bodipy-positive cells [2]: 12.9% and 14.7%

Structure (SMILES): O=C1NCCCc2c1oc1ccc(O)cc21
- percent Bodipy-positive cells [4]: 8.28 ± 3%
- percent Bodipy-positive cells [5]: 14.2 ± 1.2%
- percent Bodipy-positive cells (library stock concentration: 2 mM): 10.8 ± 1.4%
- percent Bodipy-positive cells [2]: 12.7 ± 0.84%

Structure (SMILES): CCc1c(Cl)c(O)c(Cl)c(O)c1C(=O)O[C@H]1[C@H](O)[C@H](OC)[C@H](OC/C2=C\C=C\C[C@H](O)/C(C)=C/[C@H](CC)[C@@H](O[C@@H]3OC(C)(C)[C@@H](OC(=O)C(C)C)[C@H](O)[C@@H]3O)/C(C)=C/C(C)=C/C[C@@H]([C@@H](C)O)OC2=O)O[C@@H]1C [Fidaxomicin]
- percent Bodipy-positive cells [3]: 14.6 ± 5.6%
- percent Bodipy-positive cells [2]: 40.3 ± 0.57%

Structure (SMILES): Nc1ccn([C@@H]2CS[C@H](CO)O2)c(=O)n1
- percent Bodipy-positive cells (library stock concentration: 9.9 mM): 7.61 ± 4.1%
- percent Bodipy-positive cells [2]: 28.4 ± 2.9%

Structure (SMILES): Nc1ccn([C@@H]2CS[C@H](CO)O2)c(=O)n1 [Lamivudine]
- percent Bodipy-positive cells [3]: 4.86 ± 2%
- percent Bodipy-positive cells [2]: 9.13 ± 0.56%

Structure (SMILES): Nc1c2c(nc3ccccc13)CCCC2O (centres undefined) [Hydroxytacrine maleate]
- percent Bodipy-positive cells (library stock concentration: 9.3 mM): 7.03 ± 1.6%
- percent Bodipy-positive cells [2]: 65.7 ± 16%

Structure (SMILES): Cc1cc(N)c2ccccc2[n+]1CCCCCCCCCC[n+]1c(C)cc(N)c2ccccc21 [Dequalinium chloride hydrate]
- percent Bodipy-positive cells [2]: 42.5 ± 32%

Structure (SMILES): Cc1cc(N)c2ccccc2[n+]1CCCCCCCCCC[n+]1c(C)cc(N)c2ccccc21 [Dequalinium chloride]
- percent Bodipy-positive cells [2]: 49.5 ± 6.5%

Structure (SMILES): Cc1cc(N)c2ccccc2[n+]1CCCCCCCCCC[n+]1c(C)cc(N)c2ccccc21 [Dequalinium dichloride]
- percent Bodipy-positive cells: 49.8 ± 12%
